In publication PMC9130328:
No constants are given. Whether binding was seen depends on the method and setting. Binding seen in cells or lysates may run through a third protein. Some entries that bind do so weakly or less than the wild type.

T1: RANK (mouse (endogenous in bone marrow-derived osteoclasts)) (UniProt O35305)
T1 sequence: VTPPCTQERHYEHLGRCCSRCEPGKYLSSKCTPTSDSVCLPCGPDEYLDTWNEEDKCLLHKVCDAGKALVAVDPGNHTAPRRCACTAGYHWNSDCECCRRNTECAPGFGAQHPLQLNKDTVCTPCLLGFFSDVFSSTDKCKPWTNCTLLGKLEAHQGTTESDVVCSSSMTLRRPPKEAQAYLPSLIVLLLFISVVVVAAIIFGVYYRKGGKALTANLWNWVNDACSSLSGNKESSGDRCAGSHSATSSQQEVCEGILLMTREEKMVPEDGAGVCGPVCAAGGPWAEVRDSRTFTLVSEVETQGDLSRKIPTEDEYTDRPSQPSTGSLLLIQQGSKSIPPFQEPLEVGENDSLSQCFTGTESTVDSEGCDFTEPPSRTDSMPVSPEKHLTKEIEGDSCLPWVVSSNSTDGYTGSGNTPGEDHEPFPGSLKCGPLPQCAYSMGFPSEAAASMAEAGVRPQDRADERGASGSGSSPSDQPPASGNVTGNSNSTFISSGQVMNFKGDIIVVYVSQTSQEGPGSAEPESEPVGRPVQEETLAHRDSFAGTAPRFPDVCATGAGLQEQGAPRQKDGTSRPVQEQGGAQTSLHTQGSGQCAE

B1: Anoctamin 1 (protein, UniProt Q8BHY3 1-960)
chain: MRVPEKYSTLPAEDRSVHIVNICAIEDLGYLPSEGTLLNSLSVDPDAECKYGLYFRDGKRKVDYILVYHHKRASGSRTLARRGLQNDMVLGTRSVRQDQPLPGKGSPVDAGSPEVPMDYHEDDKRFRREEYEGNLLEAGLELENDEDTKIHGVGFVKIHAPWHVLCREAEFLKLKMPTKKVYHISETRGLLKTINSVLQKITDPIQPKVAEHRPQTTKRLSYPFSREKQHLFDLTDRDSFFDSKTRSTIVYEILKRTTCTKAKYSMGITSLLANGVYSAAYPLHDGDYEGDNVEFNDRKLLYEEWASYGVFYKYQPIDLVRKYFGEKVGLYFAWLGAYTQMLIPASIVGVIVFLYGCATVDENIPSMEMCDQRYNITMCPLCDKTCSYWKMSSACATARASHLFDNPATVFFSVFMALWAATFMEHWKRKQMRLNYRWDLTGFEEEEEAVKDHPRAEYEARVLEKSLRKESRNKETDKVKLTWRDRFPAYFTNLVSIIFMIAVTFAIVLGVIIYRISTAAALAMNSSPSVRSNIRVTVTATAVIINLVVIILLDEVYGCIARWLTKIEVPKTEKSFEERLTFKAFLLKFVNSYTPIFYVAFFKGRFVGRPGDYVYIFRSFRMEECAPGGCLMELCIQLSIIMLGKQLIQNNLFEIGIPKMKKFIRYLKLRRQSPSDREEYVKRKQRYEVDFNLEPFAGLTPEYMEMIIQFGFVTLFVASFPLAPLFALLNNIIEIRLDAKKFVTELRRPVAIRAKDIGIWYNILRGVGKLAVIINAFVISFTSDFIPRLVYLYMYSQNGTMHGFVNHTLSSFNVSDFQNGTAPNDPLDLGYEVQICRYKDYREPPWSEHKYDISKDFWAVLAARLAFVIVFQNLVMFMSDFVDWVIPDIPKDISQQIHKEKVLMVELFMREEQGKQQLLDTWMEKEKPRDVPCNNHSPTTHPEAGDGSPVPSYEYHGDAL
B2: Ano1 (overexpressed from plasmid, wild type) (protein, UniProt Q8BHY3 1-960)
chain: B1 chain
B3: tumor necrosis factor (TNF) receptor-associated factor 6 (protein, UniProt P70196 1-530)
chain: MSLLNCENSCGSSQSSSDCCAAMAASCSAAVKDDSVSGSASTGNLSSSFMEEIQGYDVEFDPPLESKYECPICLMALREAVQTPCGHRFCKACIIKSIRDAGHKCPVDNEILLENQLFPDNFAKREILSLTVKCPNKGCLQKMELRHLEDHQVHCEFALVNCPQCQRPFQKCQVNTHIIEDCPRRQVSCVNCAVSMAYEEKEIHDQSCPLANIICEYCGTILIREQMPNHYDLDCPTAPIPCTFSVFGCHEKMQRNHLARHLQENTQLHMRLLAQAVHNVNLALRPCDAASPSRGCRPEDPNYEETIKQLESRLVRQDHQIRELTAKMETQSMYVGELKRTIRTLEDKVAEMEAQQCNGIYIWKIGNFGMHLKSQEEERPVVIHSPGFYTGRPGYKLCMRLHLQLPTAQRCANYISLFVHTMQGEYDSHLPWPFQGTIRLTILDQSEALIRQNHEEVMDAKPELLAFQRPTIPRNPKGFGYVTFMHLEALRQGTFIKDDTLLVRCEVSTRFDMGGLRKEGFQPRSTDAGV

What was measured:
[1] = target: T1, RANK (mouse (endogenous in bone marrow-derived osteoclasts)); test: condition: only without RANKL stimulation (M-CSF only); co-IP; control cells treated only with 30 ng/ml M-CSF for 5 days (no RANKL), lysed in RIPA; anti-RANK or Ano1 antibody, Protein A/G agarose, immunoblot
[2] = target: T1, RANK (mouse (endogenous in bone marrow-derived osteoclasts)); test: co-IP; RANKL-induced osteoclasts (30 ng/ml M-CSF and 50 ng/ml RANKL, 5 days) lysed in RIPA; total protein incubated with anti-RANK or Ano1 antibody 2 h at 4 °C, Protein A/G agarose, immunoblot for RANK, Ano1 or TRAF6; some samples treated from day 3 with Benzbromarone (10 μM), Ano1 siRNA or negative control, Ano1 plasmid or mutant Ano1 plasmid

binding [1] | binding [2] | Binder
no binding | binds | B1
– | binds | B2
– | binds | B3
